Results published in the supplement of paper PMC8166895.
Counter-ions that a name gives are not always drawn. This is one part of the list. Most entries show no effect beyond the scatter of the controls.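 A single-replicate pilot screen of approved drugs and clinical or known-target compounds measured melting temperature via differential scanning fluorimetry. Top stabilizing hits raised the melting point by 2 °C or more; negative shifts indicate destabilization.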

tested on: SARS-CoV-2 main protease (Mpro, nsp5); assay: thermal shift ΔTm of Mpro relative to plate average Tm; higher = stronger thermal stabilization of Mpro (binding); details: 10 µM; protein concentration 1 µM

Going from `CC(C)OC(=O)OCOP(=O)(CO[C@H](C)Cn1cnc2c(N)ncnc21)OCOC(=O)OC(C)C` [Tenofovir Disoproxil Fumarate] to `CC[C@H](CO)Nc1nc(NCc2ccccc2)c2ncn(C(C)C)c2n1` [Roscovitine (Seliciclib,CYC202)], the “thermal shift ΔTm of Mpro” value falls from 0.202 °C to -0.0265 °C.

Compared with `Cc1c(-c2cnccn2)ssc1=S` [Oltipraz], `O=C(Nc1ccncc1)c1cc([N+](=O)[O-])ccc1Cl` is higher in “thermal shift ΔTm of Mpro” value: -0.28 °C for the first, -0.17 °C for the second.

First: COc1ccc(-n2c(SCCCN3C(=O)c4cccc5cccc(c45)C3=O)nnc2-c2ccncc2)cc1
Second: CNc1nc(-c2cccc(NC(=O)c3ccc(C(=O)OC)cc3)c2)c2cc(OC)c(OC)cc2n1 [Lotamilast]
The “thermal shift ΔTm of Mpro” value of the first is lower: -0.425 °C for the first, 0.055 °C for the second.

Going from `Cc1cccc(CC(=O)N2CCc3c2ccc(-c2cn(C)c4ncnc(N)c24)c3F)n1` to `Cc1ccc(F)c(NC(=O)Nc2ccc(-c3cccc4[nH]nc(N)c34)cc2)c1` [Linifanib (ABT-869)], the “thermal shift ΔTm of Mpro” value rises from -0.0256 °C to 0.149 °C.

First: CCN(CC)CCNC(C(=O)OCCC(C)C)c1ccccc1 (configuration not stated) [Camylofin]
Second: CN(C)C(=O)[C@H](O)[C@H](Cc1ccccc1)NC(=O)c1cc2cc(Cl)ccc2[nH]1
The “thermal shift ΔTm of Mpro” value of the first is higher: 0.12 °C for the first, -0.0834 °C for the second.

First: C[C@@H]1C[C@H]2[C@@H]3CCC4=CC(=O)C=C[C@]4(C)[C@@]3(F)[C@@H](O)C[C@]2(C)[C@@]1(O)C(=O)COP(=O)(O)O [Dexamethasone Sodium Phosphate]
Second: COC(=O)[C@@H]1CC2=CC(=O)CC[C@]2(C)[C@@]23O[C@@H]2C[C@@]2(C)[C@@H](CC[C@@]24CCC(=O)O4)[C@H]13 [Eplerenone]
The “thermal shift ΔTm of Mpro” value of the first is lower: 0.0275 °C for the first, 0.0445 °C for the second.

Compared with `C[C@]12CC[C@@H]3c4ccc(OC(=O)c5ccccc5)cc4CC[C@H]3[C@@H]1CC[C@@H]2O` [Estradiol Benzoate], `NC(=O)c1ccc(OCCCN2CC3CCCC3C2)cc1` (configuration not stated) is higher in “thermal shift ΔTm of Mpro” value: -0.427 °C for the first, 0.0885 °C for the second.

First: CC(C)(C)[N+]([O-])=Cc1ccc(S(=O)(=O)O)cc1S(=O)(=O)O
Second: O=C(Oc1cc(S(=O)(=O)c2ccccc2)ccc1[N+](=O)[O-])c1ccc(Cl)cc1
The “thermal shift ΔTm of Mpro” value of the first is higher: -0.0794 °C for the first, -1.05 °C for the second.

Compared with `Clc1ccc(C(c2c[nH]c3ccccc23)c2c[nH]c3ccccc23)cc1`, `Nc1c2ccccc2nc2ccccc12` [Aminacrine] is lower in “thermal shift ΔTm of Mpro” value: 0.14 °C for the first, -0.0463 °C for the second.

Compared with `CN1CCN(C(c2ccccc2)c2ccccc2)CC1` [Cyclizine hydrochloride], `Cc1ccc(=O)n(-c2ccccc2)c1` [Pirfenidone] is lower in “thermal shift ΔTm of Mpro” value: 0.229 °C for the first, 0.0832 °C for the second.

First: CN1CCN(C(c2ccccc2)c2ccccc2)CC1 [Cyclizine 2HCl]
Second: O=C(CCCN1CCN(c2ccccn2)CC1)c1ccc(F)cc1 [Azaperone]
The “thermal shift ΔTm of Mpro” value of the first is higher: -0.159 °C for the first, -0.182 °C for the second.

Compared with `CC(C)OC(=O)C1=CN(C(=O)c2ccc(F)c(F)c2)CC(C)(C)c2c1[nH]c1ccccc21`, `COC(=O)C1=C(C#N)NC(C)=C(C(=O)OC(C)C)C1c1cccc([N+](=O)[O-])c1` (configuration not stated) [Nilvadipine] is higher in “thermal shift ΔTm of Mpro” value: -0.218 °C for the first, -0.197 °C for the second.

Going from `OCCN(CCO)c1nc(N2CCCCC2)c2nc(N(CCO)CCO)nc(N3CCCCC3)c2n1` [Dipyridamole] to `Cc1cc(CN2CCN(c3c(Br)cnc4nc(-c5ccc(N6CCN(C)CC6)cc5)[nH]c34)CC2)no1`, the “thermal shift ΔTm of Mpro” value rises from -0.176 °C to 0.271 °C.

Compared with `Cc1ccc(NC(=O)c2cccc(C(C)(C)C#N)c2)cc1Nc1ccc2ncn(C)c(=O)c2c1`, `Cc1cnc(Nc2ccc(OCCN3CCCC3)cc2)nc1Nc1cccc(S(=O)(=O)NC(C)(C)C)c1` is lower in “thermal shift ΔTm of Mpro” value: -0.147 °C for the first, -0.203 °C for the second.

First: CC[C@@H](C)Nc1cc(C(=O)N[C@H]2C[C@H]3CC[C@@H](C2)N3c2ccc(C(=O)C3CC3)cn2)c(C)cc1C(N)=O
Second: CNC(=O)c1cc(C#N)cc(C)c1NC(=O)c1cc(Br)nn1-c1ncccc1Cl [Cyantraniliprole]
The “thermal shift ΔTm of Mpro” value of the first is lower: 0.0916 °C for the first, 0.149 °C for the second.

Going from `O=c1[nH]c2ccccc2n1CCCN1CCC(n2c(=O)[nH]c3cc(Cl)ccc32)CC1` [Domperidone] to `CN(c1nccc(=O)[nH]1)C1CCN(c2nc3ccccc3n2Cc2ccc(F)cc2)CC1` [Mizolastine], the “thermal shift ΔTm of Mpro” value rises from -0.0983 °C to -0.0669 °C.

Going from `O=C(O)c1ccccc1C(=O)Nc1ccc(S(=O)(=O)Nc2nccs2)cc1` [Phthalylsulfathiazole] to `CCCCCCNC(=O)Nc1ccc(S(=O)(=O)Nc2ccc(CCNC[C@H](O)COc3ccc(O)cc3)cc2)cc1`, the “thermal shift ΔTm of Mpro” value falls from 0.214 °C to 0.0889 °C.

First: COCCCN1CCC(NC(=O)c2cc(Cl)c(N)c3c2OCC3)CC1 [Prucalopride]
Second: N#Cc1cc2cc(CN3CCC(Nc4ncnc5sc(CC(F)(F)F)cc45)CC3)ccc2[nH]1
The “thermal shift ΔTm of Mpro” value of the first is lower: -0.143 °C for the first, -0.0714 °C for the second.

Going from `COCCCN1CCC(NC(=O)c2cc(Cl)c(N)c3c2OCC3)CC1` [Prucalopride Succinat] to `C=C1C(=O)[C@@]23[C@H](O)C[C@@H]4C(C)(C)C(=O)CC[C@@]4(C)[C@@H]2CC[C@@H]1[C@H]3O` [Glaucocalyxin A], the “thermal shift ΔTm of Mpro” value rises from -0.0384 °C to -0.00838 °C.

First: Cn1c(-c2ccccc2C(F)(F)F)nnc1C12CCC(c3noc(C4CC(F)(F)C4)n3)(CC1)CC2
Second: CNc1nc(Nc2cn(C(C)(C)C#N)nc2C)ncc1C(F)(F)F
The “thermal shift ΔTm of Mpro” value of the first is higher: -0.048 °C for the first, -0.194 °C for the second.

Going from `C=CC(=O)N1C/C(=C\c2ccc([N+](=O)[O-])cc2)C(=O)/C(=C/c2ccc([N+](=O)[O-])cc2)C1` to `CCN(CC)c1nc2c(S(=O)(=O)c3ccc(Cl)cc3)nnn2c2cc(OC)c(OC)cc12` [Targocil], the “thermal shift ΔTm of Mpro” value falls from 0.794 °C to 0.0244 °C.

Compared with `C[C@H](CCC(=O)O)[C@H]1CC[C@H]2[C@@H]3[C@@H](O)C[C@@H]4C[C@H](O)CC[C@]4(C)[C@H]3CC[C@]12C` [Ursodiol], `COc1ccc(C2CC(=O)c3c(O)cc(OC4OC(COC5OC(C)C(O)C(O)C5O)C(O)C(O)C4O)cc3O2)cc1OC` (configuration not stated) [Methyl-Hesperidin] is lower in “thermal shift ΔTm of Mpro” value: 0.0475 °C for the first, -0.137 °C for the second.

First: COc1cc([C@@H]2OC[C@@H]3[C@H]2CO[C@H]3c2cc(OC)c(O[C@@H]3O[C@H](CO)[C@@H](O)[C@H](O)[C@H]3O)c(OC)c2)cc(OC)c1O [(-)-Syringaresinol 4-O-β-D-glucopyranosi]
Second: N[C@@H](Cc1cc(I)c(Oc2ccc(O)c(I)c2)c(I)c1)C(=O)O [Liothyronine Sodium]
The “thermal shift ΔTm of Mpro” value of the first is lower: -0.0908 °C for the first, 0.0476 °C for the second.

In the case of `CC(C)(C)c1cc(C(C)(C)C)c2c(c1)C(O)(C(F)(F)F)C(=O)O2` (racemic), the “thermal shift ΔTm of Mpro” value is reported as 0.213 °C.
